Results taken from publication PMC5752445, “Secretory leukocyte protease inhibitor (SLPI) as a potential target for inhibiting metastasis of triple-negative breast cancers” (Oncotarget, 2017).

The chains behind the UniProt entries cited, without tags or fusion partners. Where a name states a change or a piece, a line headed by the entry shows the natural chain unless it says otherwise.
UniProt Q08050: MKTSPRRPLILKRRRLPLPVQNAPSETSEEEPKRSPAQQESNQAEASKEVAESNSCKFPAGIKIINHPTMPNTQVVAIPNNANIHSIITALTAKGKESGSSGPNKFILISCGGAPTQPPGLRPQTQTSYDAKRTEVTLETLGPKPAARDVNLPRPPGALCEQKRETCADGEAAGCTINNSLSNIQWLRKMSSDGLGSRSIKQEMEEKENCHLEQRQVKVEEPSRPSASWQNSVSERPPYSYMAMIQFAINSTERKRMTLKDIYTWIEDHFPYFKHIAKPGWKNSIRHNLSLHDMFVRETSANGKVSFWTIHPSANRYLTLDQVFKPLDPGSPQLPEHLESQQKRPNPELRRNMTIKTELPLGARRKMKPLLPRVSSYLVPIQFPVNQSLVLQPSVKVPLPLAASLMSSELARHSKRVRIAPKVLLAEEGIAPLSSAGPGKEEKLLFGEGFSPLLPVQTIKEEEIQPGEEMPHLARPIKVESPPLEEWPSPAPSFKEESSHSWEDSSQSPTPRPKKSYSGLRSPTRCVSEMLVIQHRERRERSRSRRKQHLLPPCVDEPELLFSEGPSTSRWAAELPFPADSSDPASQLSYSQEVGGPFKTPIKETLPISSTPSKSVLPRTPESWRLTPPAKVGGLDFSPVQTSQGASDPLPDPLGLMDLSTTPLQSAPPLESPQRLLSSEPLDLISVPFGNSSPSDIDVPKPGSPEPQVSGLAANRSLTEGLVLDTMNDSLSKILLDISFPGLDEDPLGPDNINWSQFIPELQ

Experiments:
FoxM1 [1] = target: FoxM1 (UniProt Q08050); assay: EMSA; conditions: extract of cells not treated with SLPI, binding substantially lower than with SLPI; Thermo Fisher EMSA kit per manufacturer; antibody 1 h on ice; pH not stated; protein in an extract; label: biotin end label
FoxM1 [2] = target: FoxM1 (UniProt Q08050); assay: EMSA supershift; conditions: extract of SLPI-treated cells, FoxM1 antibody, blocked by unlabeled FoxM1 oligo; Thermo Fisher EMSA kit per manufacturer; antibody 1 h on ice; pH not stated; protein in an extract; label: biotin end label

## CTGTTCAAGATGGAGTCGCTCTGGTTC (double strand) [MMP2 promoter FoxM1 site probe]
FoxM1 [1]
  binding result: binds more weakly
FoxM1 [2]
  binding result: binds

Construct, isoform or probe ends are uncertain for at least one entry. Results from cells or extracts need not show a direct contact. For some assays here: The comparison behind a weaker result is the experiment's own reference, which may not be listed here.
